# Test results published in the supplement of paper PMC3334620.
# Whole data set: some 33,000 sequences, median “E-score (-0.5 to 0.5)” near -0.0059, cut for the highest 2% near 0.26. The list shows a part of the results.
# Target: T1, Cin5 (UniProt P40917)
# T1 sequence: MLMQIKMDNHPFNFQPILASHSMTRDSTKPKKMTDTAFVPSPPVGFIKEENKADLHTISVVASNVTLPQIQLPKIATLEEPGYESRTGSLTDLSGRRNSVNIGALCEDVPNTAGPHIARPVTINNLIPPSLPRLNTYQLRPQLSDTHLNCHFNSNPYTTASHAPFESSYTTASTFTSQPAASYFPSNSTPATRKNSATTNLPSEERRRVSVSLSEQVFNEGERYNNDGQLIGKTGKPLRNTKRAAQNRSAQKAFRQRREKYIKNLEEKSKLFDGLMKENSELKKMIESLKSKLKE
# Assay: PBM E-score (8-mer binding enrichment) (E-score (-0.5 to 0.5)); higher = stronger / more preferred TF binding
# Conditions: protein concentration: 100 nM; construct: GST-full length
# Outline: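 Bound GST-tagged yeast transcription factors, applied at about 100-200 nM to double-stranded universal all-10-mer Agilent arrays, were detected with fluorescent anti-GST. Scans were normalised with masliner. A modified Wilcoxon-Mann-Whitney statistic, the E-score, was assigned to each ungapped eight-base word pooled with its reverse complement by the Universal PBM Analysis Suite.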
row,Sequence,PBM E-score
1,CAGGCATG,-0.114
2,AACGATGT,0.0581
3,CAGCGACG,-0.205
4,GCTAGACC,-0.267
5,CATAGAAA,0.173
6,GTTACGTA,0.305
7,ATGCAGGA,-0.0613
8,ATAACCAG,0.0194
9,ATCGCCAG,-0.021
10,AAGCGTAG,-0.0586
11,AATGAGAT,0.242
12,CCAAAGAC,-0.185
13,ACACAAGT,0.0985
14,TAAGTCCA,-0.0817
15,ATTCTCTA,0.161
16,CCAGATGC,-0.138
17,GACGCCCC,-0.096
18,GTAGATAA,0.28
19,TCCTCCGA,-0.262
20,ATATCAGA,0.0931
21,CGTGTTTC,-0.139
22,TCGCCGAA,-0.0578
23,GCTTGAAC,0.0677
24,CATCAGAG,0.0228
25,CCGGCGGA,0.115

row,Sequence,PBM E-score
1,ACCGATAG,0.108
2,CCGGACCG,-0.0876
3,TACAAAGA,0.121
4,AGCAATCC,-0.161
5,ACGTTGTA,-0.0326
6,GGGACACC,-0.238
7,CAAGTGCC,-0.106
8,CTCGGGAC,-0.181
9,ACGGTGCA,-0.139
10,ACTGGGCG,-0.257
11,TACTGTGA,0.154
12,AGACAGTC,-0.157
13,AACTGAAG,0.109
14,TCAAGGCA,-0.132
15,GCAATGGC,-0.16
16,CCTCGGAG,-0.0962
17,AGCCAGAA,-0.0437
18,CAGGATAA,0.175
19,AGGTCCAA,-0.199
20,AACGGATT,0.238
21,CAATATTC,0.102
22,CCAGGAAC,-0.219
23,ATGCGGGG,-0.128
24,CTCATTTA,0.185
25,CTGATTTC,-0.00928

row,Sequence,PBM E-score
1,CAGGGCCA,-0.257
2,ACGATCCT,-0.0248
3,AACGCTAT,0.0739
4,CTCAGCCA,-0.0301
5,TAATAAAA,0.235
6,GCCAAAAC,-0.0264
7,CACACCCG,-0.0966
8,CGAATGCG,0.0975
9,ACTGTCCC,0.058
10,AAGAGGGC,-0.205
11,TAGTCGCA,0.0555
12,CAAATTAG,0.122
13,AAATGTTA,0.0773
14,GGCTGTAC,-0.237
15,ATCGACCC,0.0846
16,GGGCTGCA,-0.0765
17,AAGGATGG,-0.106
18,GGTAATGA,0.153
19,AGGTCAAC,-0.00951
20,CCTGGCCA,-0.0925
21,GCTAGAAC,-0.044
22,ATCGTCGA,-0.0681
23,GATGCGGA,-0.146
24,CGTCCGCC,-0.209
25,GGGTGCAC,-0.221

row,Sequence,PBM E-score
1,CCAGATCA,0.0639
2,CCTGGAAC,-0.114
3,ATAATACC,0.258
4,GTCTCTCA,-0.139
5,CAGGTACC,-0.324
6,AGTCTGCG,-0.343
7,GAACGGGC,-0.234
8,CCTCCTCG,-0.172
9,GAAGCGTC,-0.169
10,TATGGGAA,0.00901
11,AAAAACGA,0.223
12,ACTACAAC,0.21
13,CACGCAGA,0.101
14,TCTCCGCA,-0.132
15,AGACCGAT,-0.0832
16,CACATGGG,0.04
17,AGCATCCC,-0.17
18,GTTGGGGA,-0.0161
19,AGTGGGTA,0.0535
20,CCTCCCGC,-0.0813
21,ACAGGACC,-0.106
22,ACTTGTTC,-0.0464
23,GCGAGACC,-0.127
24,GCTGACCA,0.216
25,GAAGAACC,-0.0676

row,Sequence,PBM E-score
1,AATGAATT,0.189
2,AGCACGAG,0.0365
3,GGTATCAA,0.00165
4,CGAGAACG,0.0225
5,ATGTCGCG,0.0243
6,AGGGATCC,-0.173
7,CGGAAAAG,-0.00159
8,CTAGAGCC,-0.194
9,CCACAACC,0.106
10,AACCAGCA,-0.129
11,AAGAGAGT,-0.0939
12,GCGTGAGA,0.167
13,ATTTTTGC,0.101
14,ATTGTCGG,0.0241
15,AACCTTTC,-0.093
16,GCGATTAC,0.264
17,CATCCTGC,-0.0103
18,GACCGCGA,-0.129
19,CCACTCAC,0.0919
20,GATGCATA,0.137
21,ACTGGTGA,-0.114
22,CCCCCCCA,-0.464
23,CCTTAATA,0.149
24,CACTCTCC,-0.0769
25,CAAGATAG,0.0267

row,Sequence,PBM E-score
1,GGTACAGA,0.056
2,AAGCGCGG,0.0148
3,ATGAGGAA,0.118
4,CCAAGCGA,-0.0596
5,GTATGAGA,0.144
6,CATGCGGC,-0.0851
7,ATAGCAAA,0.0206
8,GCAAGCCC,-0.05
9,ATACTGCG,-0.0234
10,AGTCACAA,0.113
11,CATGGTCC,-0.195
12,CCCGACAC,-0.15
13,CAAGTTGG,0.138
14,ATCCCATA,0.0489
15,ACAAATTA,0.269
16,ATGGGTCA,-0.00802
17,AGTGCATA,-0.134
18,ATCTCCCC,-0.0993
19,CAACCATC,-0.138
20,GGTTCGAC,-0.0557
21,CAGAGAGC,-0.193
22,AACGGGCC,-0.0743
23,ACTACGCA,-0.169
24,AATGTGTC,0.181
25,CCATCCCA,-0.0377

# As entered above.
# ATGGGTCA – PBM E-score: -0.00802
# CATGGTCC – PBM E-score: -0.195
# GGTACAGA – PBM E-score: 0.056
# ATACTGCG – PBM E-score: -0.0234
# AGTGCATA – PBM E-score: -0.134
# ATCTCCCC – PBM E-score: -0.0993

# Retrieved one by one from above, four records:
row,Sequence,PBM E-score
6,CATGCGGC,-0.0851
9,ATACTGCG,-0.0234
10,AGTCACAA,0.113
3,ATGAGGAA,0.118

# The listing continues.

row,Sequence,PBM E-score
1,TGACACAA,0.153
2,CGTTCTCA,-0.00334
3,CCCTTAGA,-0.0174
4,AGAATTAC,0.098
5,GCTAGAAA,0.158
6,CCAGACCA,-0.0619
7,GAATGTCA,0.0882
8,CTCACACA,-0.00376
9,ATGGGAGC,-0.0315
10,TAGCCATA,-0.0697
11,ACGCTAGC,-0.235
12,GATGCGCC,-0.0294
13,AAGAATTG,0.215
14,CAACTGGA,-0.0777
15,GACACACC,0.0393
16,TGAGCCAA,0.0379
17,CTATGCAC,-0.0651
18,ACCCAGTA,-0.146
19,AACCGTGG,-0.17
20,CCGCGCGC,0.0301
21,GCATAGAA,0.0234
22,CAAGCGAG,0.158
23,CATCCCCA,0.0398
24,AATAGAGA,-0.00888
25,ACGAACGG,0.0374

row,Sequence,PBM E-score
1,GTGGAGTA,0.0199
2,ACGTCTCG,-0.0923
3,CATTAATA,0.187
4,AGAGTCCC,-0.216
5,ATGTGCAC,-0.0957
6,AAGCAGCT,0.00585
7,CTGCTGCC,-0.124
8,ATCTCTTA,0.0999
9,GGTAGACA,0.0358
10,GTACATAA,0.189
11,TGTCGACA,-0.0626
12,AGGTGAAG,-0.0765
13,GCCGCCCC,-0.114
14,AAGGAATT,-0.0682
15,ATCGGCAA,-0.00239
16,ACTGCAGC,-0.101
17,ACCGCCAC,-0.0973
18,AAAGAGTC,-0.153
19,AAGTGTCT,-0.0697
20,ATTTACAG,-0.00107
21,ACAGATTC,0.122
22,GCACCGCA,-0.192
23,AGACGCCA,-0.182
24,GCGATCCA,0.0153
25,TACCTTCA,-0.0369

row,Sequence,PBM E-score
1,CCAGCCAG,-0.254
2,AGATATTA,0.168
3,GGACTGGA,-0.178
4,AGGCTATA,-0.161
5,CATGATCA,0.158
6,TAAGAGTA,0.0454
7,CTGCATTA,-0.154
8,CCAGAGGC,-0.221
9,CGACGCCC,0.0231
10,ACCTGGGG,-0.253
11,CCGCTTAA,0.103
12,CATCAGCC,0.0542
13,AATGAAAC,0.169
14,AACGCGGG,0.132
15,CACCGAGG,-0.17
16,GATCAAGA,0.0483
17,ACCCTGGG,-0.257
18,AAACTCGG,0.0178
19,ACCTCCTG,-0.24

# 2 entries from above, as tab-separated lines.
row	Sequence	PBM E-score
3	GGACTGGA	-0.178
4	AGGCTATA	-0.161
